{"source": "patent US20090069405A1", "about": "“TREATMENT OF CNS AND PAIN DISORDERS” (Valexfarm, Ltd., priority 2007, published 2009)", "tested_on": "mice", "assay": "Forced Swim Test", "type": "in vivo", "settings": "25 mg/kg", "protocol": "Forced Swim Test. The test apparatus consisted of a clear plastic cylindrical tank, 35 cm high and 25 cm in diameter, which was filled to a depth of 25 cm with tap water equilibrated overnight to room temperature (24° C.). A glass plate covered the top of the tank to prevent escape while the mouse was swimming. The water in the tank was replaced by fresh water at room temperature after three mice had been tested. To habituate the mouse, it was forced to swim in the tank for 15 min., then removed and dried by toweling and a heat lamp, and returned to its cage. Twenty-four hours later, the mouse was returned to the tank and allowed to swim for 5 min. while its swimming activity was recorded by a video camera, mounted above the tank. After this, the mouse was dried and returned to its cage. End points of the test were total time spent floating in an immobile position, without paddling of limbs (swimming) (Porsolt et al. Nature (1977) 266:730-732).", "note": "At least one structure is not confirmed: it was looked up by name or label, or the drawing left a doubt."}
{"smiles": "CCC1(c2ccccc2)C(=O)NC(=O)NC1=O", "note": "[Phenobarbital]", "values": [{"measurement": "antidepressive effect (total time spent floating immobile)", "value": "significant effect"}]}
